Reference: patent US20060270591A1, “Androgen receptor coregulators” (priority 2002, published 2006)
No constants are given. Whether binding was seen depends on the method and setting. For some of these results: In cells and extracts the contact can be indirect. Some results given as binding are weak or reduced against the parent protein; the word gives no strength. For some of these results: Sequences can lack the tags named with a protein.

Sequences of proteins named here, by UniProt entry; tags and fusion partners are left off. A change or cut given only in a name is not applied to a line headed by its entry.
UniProt P10275: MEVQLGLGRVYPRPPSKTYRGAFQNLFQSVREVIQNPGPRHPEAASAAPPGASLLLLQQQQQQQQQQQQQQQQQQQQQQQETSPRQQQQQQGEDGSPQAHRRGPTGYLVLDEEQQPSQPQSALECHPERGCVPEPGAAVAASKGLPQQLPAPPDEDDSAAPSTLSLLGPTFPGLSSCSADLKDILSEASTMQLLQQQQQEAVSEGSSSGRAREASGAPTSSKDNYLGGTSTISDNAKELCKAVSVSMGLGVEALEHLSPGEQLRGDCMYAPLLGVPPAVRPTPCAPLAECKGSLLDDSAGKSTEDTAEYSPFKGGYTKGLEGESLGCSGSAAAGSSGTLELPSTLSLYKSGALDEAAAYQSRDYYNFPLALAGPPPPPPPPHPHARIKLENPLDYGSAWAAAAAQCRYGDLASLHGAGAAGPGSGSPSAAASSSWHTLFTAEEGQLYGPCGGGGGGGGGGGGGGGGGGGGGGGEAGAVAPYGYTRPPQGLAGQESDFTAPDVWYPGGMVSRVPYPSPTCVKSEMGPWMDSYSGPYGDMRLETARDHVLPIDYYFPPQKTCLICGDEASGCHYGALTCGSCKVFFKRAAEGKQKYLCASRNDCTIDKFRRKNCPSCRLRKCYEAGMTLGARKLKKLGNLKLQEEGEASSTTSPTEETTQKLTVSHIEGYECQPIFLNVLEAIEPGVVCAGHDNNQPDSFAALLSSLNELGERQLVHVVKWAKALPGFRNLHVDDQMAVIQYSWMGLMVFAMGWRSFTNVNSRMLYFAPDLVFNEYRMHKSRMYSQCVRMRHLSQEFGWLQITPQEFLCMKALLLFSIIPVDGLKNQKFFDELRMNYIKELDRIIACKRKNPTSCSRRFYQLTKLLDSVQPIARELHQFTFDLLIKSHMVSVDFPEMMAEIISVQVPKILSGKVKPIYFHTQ

What was measured:
[1] = molecular target: GAL4 DBD fused full-length ARA54 (human); assay: mammalian two-hybrid
[2] = molecular target: GAL4 DBD fused full-length ARA54 (human); assay: mammalian two-hybrid, DU145, pG5-CAT
[3] = molecular target: AR-C (aa 553-918), in vitro translated (human) (UniProt P10275); assay: GST pull-down
[4] = molecular target: androgen receptor (AR), full-length, human (human) (UniProt P10275); assay: GST pull-down
[5] = molecular target: androgen receptor (AR), full-length, human (human) (UniProt P10275); assay: GST pull-down of [35S]-labeled AR
[6] = molecular target: AR-C (aa 553-918), in vitro translated (human) (UniProt P10275); assay: GST pull-down of [35S]-labeled AR fragments
[7] = molecular target: androgen receptor (AR), full-length, human (human) (UniProt P10275); assay: co-immunoprecipitation of in vitro translated proteins, anti-His-tag antibodies

B1: VP16 AD fused full-length ARA54 (protein)
chain: MSSEDREAQEDELLALASIYDGDEFRKAESVQGGETRIYLDLPQNFKIFVSGNSNECLQNSGFEYTICFLPPLVLNFELPPDYPSSSPPSFTLSGKWLSPTQLSALCKHLDNLWEEHRGSVVLFAWMQFLKEETLAYLNIVSPFELKIGSQKKVQRRTAQASPNTELDFGGAAGSDVDQEEIVDERAVQDVESLSNLIQEILDFDQAQQIKCFNSKLFLCSICFCEKLGSECMYFLECRHVYCKACLKDYFEIQIRDGQVQCLNCPEPKCPSVATPGQVKELVEAELFARYDRLLLQSSLDLMADVVYCPRPCCQLPVMQEPGCTMGICSSCNFAFCTLCRLTYHGVSPCKVTAEKLMDLRNEYLQADEANKRLLDQRYGKRVIQKALEEMESKEWLEKNSKSCPCCGTPIEKLDGCNKMTCTGCMQYFCWICMGSLSRANPYKHFNDPGSPCFNRLFYAVDVDDDIWEDEVED
With B1 the binding [1] was “binds” and the binding [2] was “binds”.

B2: VP16 AD fused C'-ARA54 (amino acids 361-474) (protein)
chain: RNEYLQADEANKRLLDQRYGKRVIQKALEEMESKEWLEKNSKSCPCCGTPIEKLDGCNKMTCTGCMQYFCWICMGSLSRANPYKHFNDPGSPCFNRLFYAVDVDDDIWEDEVED
In the case of B2, the binding [2] is reported as “binds”.

B3: GST-ARA267N1 (ARA267 aa 1-382) (protein, not shown: a dimerising Fc or GST)
chain: MPLKTRTALSDDPDSSTSTLGNMLELPGTSSSSTSQELPFCQPKKKSTPLKYEVGDLIWAKFKRRPWWPCRICSDPLINTHSKMKVSNRRPYRQYYVEAFGDPSERAWVAGKAIVMFEGRHQFEELPVLRRRGKQKEKGYRHKVPQKILSKWEASVGLAEQYDVPKGSKNRKCIPGSIKLDSEEDMPFEDCTNDPESEHDLLLNGCLKSLAFDSEHSADEKEKPCAKSRARKSSDNPKRTSVKKGHIQFEAHKDERRGKIPENLGLNFISGDISDTQASNELSRIANSLTGSNTAPGSFLFSSCGKNTAKKEFETSNGDSLLGLPEGALISKCSREKNKPQRSLVCGSKVKLCYIGAGDEEKRSDSISICTTSDDGSSDLDP
With B3 the binding [3] was “binds”, the binding [4] was “binds” and the binding [5] was “binds”. The binding [6] was “binds”.

B4: GST-ARA267N2 (ARA267 aa 1-984) (protein, not shown: a dimerising Fc or GST)
chain: MPLKTRTALSDDPDSSTSTLGNMLELPGTSSSSTSQELPFCQPKKKSTPLKYEVGDLIWAKFKRRPWWPCRICSDPLINTHSKMKVSNRRPYRQYYVEAFGDPSERAWVAGKAIVMFEGRHQFEELPVLRRRGKQKEKGYRHKVPQKILSKWEASVGLAEQYDVPKGSKNRKCIPGSIKLDSEEDMPFEDCTNDPESEHDLLLNGCLKSLAFDSEHSADEKEKPCAKSRARKSSDNPKRTSVKKGHIQFEAHKDERRGKIPENLGLNFISGDISDTQASNELSRIANSLTGSNTAPGSFLFSSCGKNTAKKEFETSNGDSLLGLPEGALISKCSREKNKPQRSLVCGSKVKLCYIGAGDEEKRSDSISICTTSDDGSSDLDPIEHSSESDNSVLEIPDAFDRTENMLSMQKNEKIKYSRFAATNTRVKAKQKPLISNSHTDHLMGCTKSAEPGTETSQVNLSDLKASTLVHKPQSDFTNDALSPKFNLSSSISSENSLIKGGAANQALLHSKSKQPKFRSIKCKHKENPVMAEPPVINEECSLKCCSSDTKGSPLASISKSGKVDGLKLLNNMHEKTRDSSDIETAVVKHVLSELKELSYRSLGEDVSDSGTSKPSKPLLFSSASSQNHIPIEPDYKFSTLLMMLKDMHDSKTKEQRLMTAQNLVSYRSPGRGDCSTNSPVGVSKVLVSGGSTHNSEKKGDGTQNSANPSPSGGDSALSGELSASLPGLLSDKRDLPASGKSRSDCVTRRNCGRSKPSSKLRDAFSAQMVKNTVNRKALKTERKRKLNQLPSVTLDAVLQGDRERGGSLRGGAEDPSKEDPLQIMGHLTSEDGDHFSDVHFDSKVKQSDPGKISEKGLSFENGKGPELDSVMNSENDELNGVNQVVPKKRWQRLNQRRTKPRKRMNRFKEKENSECAFRVLLPSDPVQEGRDEFPEHRTPSASILEEPLTEQNHADCLDSAGPRLNVCDKSSASIGDMEKEPGI
B4 was tested, and the binding [3] was “binds”, the binding [4] was “binds” and the binding [5] was “binds”. For the same binder, the binding [6] was “binds”.

B5: GST-ARA267C (ARA267 aa 1716-2427) (protein, not shown: a dimerising Fc or GST)
chain: IRYAQEHDITNFYMLTLDKDRIIDAGPKGNYARFMNHCCQPNCETQKWSVNGDTRVGLFALSDIKAGTELTFNYNLECLGNGKTVCKCGAPNCSGFLGVRPKNQPIATEEKSKKFKKKQQGKRRTQGEITKEREDECFSCGDAGQLVSCKKPGCPKVYHADCLNLTKRPAGKWECPWHQCDICGKEAASFCEMCPSSFCKQHREGMLFISKLDGRLSCTEHDPCGPNPLEPGEIREYVPPPVPLPPGPSTHLAEQSTGMAAQAPKMSDKPPADTNQMLSLSKKALAGTCQRPLLPERPLERTDSRPQPLDKVRDLAGSGTKSQSLVSSQRPLDRPPAVAGPRPQLSDKPSPVTSPSSSPSVRSQPLERPLGTADPRLDKSIGAASPRPQSLEKTSVPTGLRLPPPDRLLITSSPKPQTSDRPTDKPHASLSQRLPPPEKVLSAVVQTLVAKEKALRPVDQNTQSKNRAALVMDLIDLTPRQKERAASPHQVTPQADEKMPVLESSSWPASKGLGHMPRAVEKGCVSDPLQTSGKAAAPSEDPWQAVKSLTQARLLSQPPAKAFLYEPTTQASGRASAGAEQTPGPLSQSPGLVKQAKQMVGGQQLPALAAKSGQSFRSLGKAPASLPTEEKKLVTTEQSPWALGKASSRAGLWPIVAGQTLAQSCWSAGSTQTLAQTCWSLGRGQDPKPEQNTLPALNQAPSSHKCAESEQK
B5 was tested, and the binding [3] was “binds”, the binding [4] was “binds” and the binding [5] was “binds”. For the same binder, the binding [6] was “binds”.

B6: ARA54, full-length, in vitro translated (protein)
chain: B1 chain
For B6, the binding [7] was “binds”.
